Laboratory results taken from the supplement of paper PMC12889115.
The list shows a part of the results. Values are raw readings; no control value is given beside them.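 Primary screen: polymyxin B was added at a level permeabilizing Salmonella outer membranes while sparing inner membranes. DMSO wells, both with and without polymyxin B, established maximum growth. Plate-to-plate variation meant each plate was ranked on its own, and the lowest-OD600 compounds were selected as hits.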

System: Salmonella enterica serovar Typhimurium SL1344
Assay: bacterial growth OD600 after 18 h with compound and polymyxin B; higher = more bacterial growth (less inhibition)
Settings: 50 µM, Mueller-Hinton broth

**Q.** With `CCOC(=O)N1CCN(C(=O)CC(c2cccc(O)c2)c2ccccc2O)CC1` (stereo not given) as the compound, how does the “bacterial growth OD600” value (polymyxin B 1 µg/mL) read?
**A.** 0.939

**Q.** Which “bacterial growth OD600” value (polymyxin B 1 µg/mL) does the source give for `COc1cccc(OCc2nc(C(=O)NCc3cc(F)ccc3C)co2)c1` here?
**A.** 0.798

**Q.** With `O=C(c1ccnnc1)N1CCC(C2CCN(Cc3cccc(F)c3F)CC2)C1` (stereo not given) as the compound, how does the “bacterial growth OD600” value (polymyxin B 0.75 µg/mL) read?
**A.** 0.843

**Q.** For `C#CCN(C(=O)CCC1(Cc2ccc(OC)c3ccccc23)CCC(=O)N1)C1CCCCC1` (stereo not given), which “bacterial growth OD600” value (polymyxin B 0.75 µg/mL) is on record?
**A.** 0.545

**Q.** With `O=C(NCC1CC(Cc2ccc(F)cc2)=NO1)c1cc(F)c(F)cc1F` (stereo not given) as the compound, how does the “bacterial growth OD600” value (polymyxin B 0.75 µg/mL) read?
**A.** 0.844

**Q.** For `CN(C)C(=O)N1CCC(C(=O)N2CCCC(N(C)CCc3ccccc3)C2)CC1` (stereo not given), which “bacterial growth OD600” value (polymyxin B 1 µg/mL) is on record?
**A.** 1.07

**Q.** How did the “bacterial growth OD600” value (polymyxin B 1 µg/mL) turn out when `CCCNC(=O)N(C)CC1CCCN(CCc2ccccc2OC)C1` (stereo not given) was run?
**A.** 1.04

**Q.** Which “bacterial growth OD600” value (polymyxin B 1 µg/mL) does the source give for `O=C(Cn1cncn1)N1CCC2(CCCN(Cc3ccccc3F)C2)C1` (stereo not given) here?
**A.** 0.887

**Q.** Which “bacterial growth OD600” value (polymyxin B 0.75 µg/mL) does the source give for `CCC(C)CC(=O)NCC1Cc2cc(C)cc(-c3ccc(OC)nn3)c2O1` (stereo not given) here?
**A.** 0.839

**Q.** With `Cn1cc(CN2CCCC2C(=O)Nc2ccc(-c3cccc(F)c3)cc2)cn1` (stereo not given) as the compound, how does the “bacterial growth OD600” value (polymyxin B 1 µg/mL) read?
**A.** 0.894

**Q.** Which “bacterial growth OD600” value (polymyxin B 0.75 µg/mL) does the source give for `COc1cc(CC2(CCC(=O)NC(C)C34CC5CC(CC(O)(C5)C3)C4)CCC(=O)N2)ccc1F` (stereo not given) here?
**A.** 0.826

**Q.** For `CCCn1cc(CN2CCC(CO)(Cc3ccccc3Cl)CC2)c(C)n1`, which “bacterial growth OD600” value (polymyxin B 1 µg/mL) is on record?
**A.** 0.906

**Q.** With `CN(CC1CCCCO1)C(=O)CC1(c2ccccc2)CC(=O)N(CCCOc2cccnc2)C1=O` (stereo not given) as the compound, how does the “bacterial growth OD600” value (polymyxin B 0.75 µg/mL) read?
**A.** 0.855

**Q.** `Cc1ncc2c(c1CNC(=O)Cc1ccsc1)CCN(C(=O)C(c1ccccc1)c1ccccc1)C2` was tested. Which “bacterial growth OD600” value (polymyxin B 0.75 µg/mL) did it give?
**A.** 0.717

**Q.** `COCCNC(=O)c1ccc(OC2CCN(Cc3ccccn3)CC2)c(Cl)c1` was tested. Which “bacterial growth OD600” value (polymyxin B 1 µg/mL) did it give?
**A.** 0.876

**Q.** How did the “bacterial growth OD600” value (polymyxin B 0.75 µg/mL) turn out when `CCOC(=O)N1CCC(NC(=O)C2CC23CCN(C(=O)/C=C/c2ccc(F)cc2F)CC3)CC1` (stereo not given) was run?
**A.** 0.756

**Q.** Which “bacterial growth OD600” value (polymyxin B 1 µg/mL) does the source give for `COC(=O)CN(C)C(=O)C1CCC(=O)N(CCc2ccc(OC)cc2)C1` (stereo not given) here?
**A.** 0.888

**Q.** How did the “bacterial growth OD600” value (polymyxin B 1 µg/mL) turn out when `O=C1CCCN1CC1CCN(Cc2nc(-c3cccc(Cl)c3)no2)CC1` was run?
**A.** 0.764

**Q.** With `Cc1cnccc1CNC(=O)CC(c1ccccc1)c1ccc2c(c1)OCO2` (stereo not given) as the compound, how does the “bacterial growth OD600” value (polymyxin B 1 µg/mL) read?
**A.** 0.795

**Q.** For `CCNC(=O)N1CCCC(CCc2ccccc2)C1` (stereo not given), which “bacterial growth OD600” value (polymyxin B 0.75 µg/mL) is on record?
**A.** 0.533
